In this experiment the target is T1, FPRL1 (formyl peptide receptor-like 1) inhibitory protein (FLIPr) (S. aureus) (UniProt Q2FZC0).
T1 sequence: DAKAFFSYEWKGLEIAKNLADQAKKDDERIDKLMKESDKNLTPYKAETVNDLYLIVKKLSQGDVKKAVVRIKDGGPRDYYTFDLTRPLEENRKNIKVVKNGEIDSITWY
Put plainly: peptide or protein array; both purified.

Amino acid sequences for entries named in this document (tags omitted). A change or cut given only in a name is not applied to a line headed by its entry.
UniProt Q9BRK3: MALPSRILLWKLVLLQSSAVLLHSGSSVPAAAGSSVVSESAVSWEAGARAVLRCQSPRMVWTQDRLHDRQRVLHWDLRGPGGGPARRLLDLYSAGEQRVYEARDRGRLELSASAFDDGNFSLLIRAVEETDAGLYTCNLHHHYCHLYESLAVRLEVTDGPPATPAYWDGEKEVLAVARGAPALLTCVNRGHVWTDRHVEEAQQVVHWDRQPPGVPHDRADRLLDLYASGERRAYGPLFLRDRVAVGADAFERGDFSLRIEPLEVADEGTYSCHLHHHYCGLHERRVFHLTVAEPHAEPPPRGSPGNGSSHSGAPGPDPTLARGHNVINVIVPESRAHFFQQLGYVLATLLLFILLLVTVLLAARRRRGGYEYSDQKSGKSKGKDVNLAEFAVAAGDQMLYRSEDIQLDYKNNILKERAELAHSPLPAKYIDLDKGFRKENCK
UniProt Q9UMF0: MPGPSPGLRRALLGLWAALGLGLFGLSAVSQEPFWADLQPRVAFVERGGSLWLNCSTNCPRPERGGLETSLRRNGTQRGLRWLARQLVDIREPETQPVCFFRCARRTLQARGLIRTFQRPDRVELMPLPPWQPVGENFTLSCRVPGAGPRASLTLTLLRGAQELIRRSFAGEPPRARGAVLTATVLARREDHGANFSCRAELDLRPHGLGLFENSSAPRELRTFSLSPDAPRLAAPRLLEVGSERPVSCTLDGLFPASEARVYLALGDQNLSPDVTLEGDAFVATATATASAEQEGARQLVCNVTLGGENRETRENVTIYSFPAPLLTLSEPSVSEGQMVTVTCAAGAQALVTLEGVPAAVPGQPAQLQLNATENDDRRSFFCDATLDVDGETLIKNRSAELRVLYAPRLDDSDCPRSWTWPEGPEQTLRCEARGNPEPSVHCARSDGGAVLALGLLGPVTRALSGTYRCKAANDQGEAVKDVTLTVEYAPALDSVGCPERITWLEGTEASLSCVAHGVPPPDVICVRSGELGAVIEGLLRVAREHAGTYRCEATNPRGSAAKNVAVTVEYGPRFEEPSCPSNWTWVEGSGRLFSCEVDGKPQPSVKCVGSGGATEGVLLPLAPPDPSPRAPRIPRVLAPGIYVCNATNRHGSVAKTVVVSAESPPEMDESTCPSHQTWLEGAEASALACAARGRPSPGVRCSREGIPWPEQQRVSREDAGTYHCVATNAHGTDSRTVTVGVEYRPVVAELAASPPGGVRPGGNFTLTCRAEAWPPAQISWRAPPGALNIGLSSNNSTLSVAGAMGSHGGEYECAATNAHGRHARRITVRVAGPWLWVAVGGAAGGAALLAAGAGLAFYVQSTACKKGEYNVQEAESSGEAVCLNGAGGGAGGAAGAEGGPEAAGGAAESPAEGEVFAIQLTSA

No constants are given. Whether binding was seen depends on the method and setting. A result given as binding can be weak or reduced; the word gives no strength.

Here are results for two substances from paper PMC4908583.

“matrix remodelling associated protein 8 (MXRA8) (from UniProt Q9BRK3)”: the binding entry is given as “binds”.
The same measure for “intercellular adhesion molecule 5 (ICAM5) (from UniProt Q9UMF0)”: “binds”.
